No constants are given. Whether binding was seen depends on the method and setting. Binding seen in cells or lysates may run through a third protein. For some assays here: Binding calls can cover weak binding; strength is not graded here.
Legend:
[1] = target: CoxIV, a cytochrome c oxidase subunit localized to the inner mitochondrial membrane (Xenopus laevis (endogenous in cultured retinal explants)); assay: proximity ligation; Duolink in situ PLA on fixed, permeabilised cultured retinal explants (RGC growth cones) from Xenopus embryos; pairs of mouse and rabbit primary antibodies; positive signal only when the two antibodies are within 40 nm
[2] = target: NFPC (Xenopus laevis (endogenous in cultured retinal explants)); assay: as above

B1: lamin B2 (protein, UniProt P21910 1-623)
chain: MATTTPSRSTRSSMQSPARGTSTPLSPTRISRLQEKEELRHLNDRLAVYIDRVRALELENDRLMVKISEKEEVTTREVSGIKNLYESELADARKVLDETARERARLQIELGKFRSDLDELNKNYKKKDADLSTAQGRIKDLEALFHRSEAELGTALGEKRSLEAEVADLRAQLSKTEDAHRVAKKQLEKETLMRVDFENRMQSLQEEMDFRKNIYEEESRETRKRHERRIVEVDRGHHYDYESKLAQALDELRKQHDEQVKMYKEELEQTYQAKLDNIKRSSDHNDKAANTALEELTERRMRIETLGYQLSGLQKQANAAEERIRELEELLSSDRDKYRKLLDSKEREMAEMRDQMQQQLNEYQELLDVKLALDLEINAYRKLLEGEEERLKLSPSPESRVTVSRATSSSSSATRTSRSKRRRVEEEYEEGGASTGFGAGHSLGSSRITASEGSSRTITSGQSSTTRFHLSQQASATGSISIEEIDLEGKYVHLKNNSDKDQSLGNWRLKRKIGEEEEIVYKFTPKYVLKAGQSVKIYSADAGVAHSPPSILVWKNQSSWGTGSNIRTYLVNTEEEEVAVRTVTKSVLRNVEEEEDEDADFGEEDLFHQQGDPRTTSRGCSVM
Q: For B1, which binding [1] is on record?
A: The binding was “binds”.

Q: And the binding [2]?
A: Its binding is “no binding”.

— paper PMC3314965
